Record: PubChem BioAssay AID602196 (INSERM, 2012)

Purpose: 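Genes whose knock-down alters cisplatin killing of lung cancer cells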
Cells: human A549 lung cancer cells
Knock-down reagent: siRNA pair against human genes
Duration: 48 h transfection before cisplatin; time from cisplatin to read-out not stated
Treatment: cisplatin at a dose killing half of control-siRNA cells; exact dose and duration not given
Detection: 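Cisplatin cell death as a shift from the 50% death seen with control siRNA; siRNAs toxic or growth-blocking alone scored 0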
Scale: two-siRNA summed score (-2 to +2): higher = both siRNAs protect from cisplatin killing; -2 means both sensitise; mean protection from cisplatin (shift in death) and protection from cisplatin (shift in death), siRNA C and protection from cisplatin (shift in death), siRNA D: higher = protection from cisplatin killing
Call rule: 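siRNAs harmful alone (LDH or WST-1) get 0; others get +1 for less and -1 for more cisplatin killing; genes are active when the two siRNAs give the same sign, summing to ±2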
Calls: active = both siRNAs shift cisplatin killing the same way; inactive = no consistent shift, or siRNA harmful alone
This is a random part of about 23,000 deposited reagents. Over the whole deposit, 455 (2%) got an active call. 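Active includes both protection and sensitisation; some change values fall well beyond the stated -50 to +50 range.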 A number with no mark means an inactive call. Not given: the amount of reagent.

Target gene	two-siRNA summed score (-2 to +2)	mean protection from cisplatin (shift in death) (%)	protection from cisplatin (shift in death), siRNA C (%)	protection from cisplatin (shift in death), siRNA D (%)
SLC2A7	-1	-7.7	-17.3	1.8
PFKFB1	0	6.5	-7.2	20.2
DDR2	1	14.9	22.8	6.9
FAM53C	0	5.7	9.1	2.4
LOC442695	0	14.5	15.5	13.5
LOC442398	-1	-10.7	-1.4	-20
TRAM1L1	0	-0.5	4.1	-5.2
LOC442573	1	21.7	18.3	25.1
TEDC1	0	-5	0.1	-10
TNFSF18	0	-2.2	-1	-3.3
ZNF768	0	13.6	7.3	19.9
MARCHF10	1	18.1	21	15.2
TMEM167B	0	6.4	0.8	12.1
LOC401860	2 (active)	18.8	19.3	18.3
LAMP3	-1	-15.5	-8.5	-22.4
MICAL1	0	8.1	16	0.2
ORC4	0	0.8	-5.8	7.5
LOC442403	0	9.3	8.3	10.4
ADAMTS9	0	14.8	1.9	27.8
PAQR8	1	12.4	6.3	18.5
DNAAF4	0	-9.4	-9.7	-9
DCLK2	2 (active)	19.2	10.6	27.8
LIMS1	0	-1.9	10.4	-14.2
TEX26	0	3.3	-6.7	13.3
IGLL1	0	2.1	-5.3	9.6
ADAT3	-1	-16.1	-6.9	-25.2
LOC389778	0	0.7	-4.4	5.8
CNR2	0	15.3	40.4	-9.7
VAMP2	1	9.3	15.8	2.8
SLC26A7	0	4.1	3.6	4.6
CDC45	-2 (active)	-18.2	-17.7	-18.6
H3C8	1	17.9	29.9	5.9
UNC5A	0	-2.8	-5.4	-0.1
BLNK	-1	-16.1	-15.5	-16.6
ESS2	0	-5	1.3	-11.2
GRB7	-1	-9.5	12.5	-31.6
SPANXN4	0	7.9	6.2	9.6
H4C5	0	13.7	0	27.4
COL4A1	1	12.6	9.8	15.5
RESF1	-1	-6.7	-0.1	-13.2
TMEM65	0	-0.5	2.1	-3.2
LOC152122	0	20.2	-5.9	46.3
ZNRF2	0	4.4	2.7	6
PKD2	0	12.4	-5.3	30.2
QPCT	0	5.1	2.8	7.5
DKFZp761P0423	1	15.2	20.2	10.1
LOC442532	0	4.1	0.6	7.5
LOC441666	1	25.4	20.3	30.5
BFSP2	1	16.9	9.2	24.6
PRKCH	0	11	16.8	5.1
LOC200731	1	12.3	4.1	20.4
UNC93A	0	6.4	10.7	2.2
FAM24A	1	20.1	29.2	11.1
SNRNP35	0	6.9	6.8	6.9
MECR	0	-7	-22.4	8.4
EGFLAM	1	5.4	2.3	8.6
GNRHR	0	3.9	9.4	-1.7

Called active, among the entries above:
Target gene	two-siRNA summed score (-2 to +2)	mean protection from cisplatin (shift in death) (%)	protection from cisplatin (shift in death), siRNA C (%)	protection from cisplatin (shift in death), siRNA D (%)
LOC401860	2 (active)	18.8	19.3	18.3
DCLK2	2 (active)	19.2	10.6	27.8
CDC45	-2 (active)	-18.2	-17.7	-18.6
